Reference: publication PMC6300602
These are yes or no findings as the source states them, for the method shown. In cells and extracts the contact can be indirect. Some binding calls cover weakened binding; strength is not graded here. For some of these results: Sequences can lack the tags named with a protein. One block for each binder: values may come before it.

By UniProt entry, the sequences of proteins in these tests, tags left out.
UniProt Q12522: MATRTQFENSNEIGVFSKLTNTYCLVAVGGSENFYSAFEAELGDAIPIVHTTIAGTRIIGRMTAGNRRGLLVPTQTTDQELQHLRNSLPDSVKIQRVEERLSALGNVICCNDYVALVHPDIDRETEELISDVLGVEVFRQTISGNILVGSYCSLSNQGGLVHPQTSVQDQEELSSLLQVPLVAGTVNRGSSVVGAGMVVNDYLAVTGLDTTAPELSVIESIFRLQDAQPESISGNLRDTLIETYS

Assays:
[1] = target: TAP-tagged Tif6 (S. cerevisiae) (UniProt Q12522); assay: co-IP; Tif6-TAP retrieved with late pre-60S particles from yeast lysate on IgG sepharose, eluted with TEV protease, western blot; cells expressing (Gal) or depleted of (Glu) Spb4; particle amounts normalised to Tif6 and Rpl15
[2] = target: T1, Kre35-TAP (S. cerevisiae) (UniProt P53145); assay: co-IP; Kre35-TAP retrieved with cytoplasmic pre-60S particles from yeast lysate on IgG sepharose, eluted with TEV protease, western blot; cells expressing or depleted of Mak5 (doxycycline); particle amounts normalised to Rpl15
T1 sequence: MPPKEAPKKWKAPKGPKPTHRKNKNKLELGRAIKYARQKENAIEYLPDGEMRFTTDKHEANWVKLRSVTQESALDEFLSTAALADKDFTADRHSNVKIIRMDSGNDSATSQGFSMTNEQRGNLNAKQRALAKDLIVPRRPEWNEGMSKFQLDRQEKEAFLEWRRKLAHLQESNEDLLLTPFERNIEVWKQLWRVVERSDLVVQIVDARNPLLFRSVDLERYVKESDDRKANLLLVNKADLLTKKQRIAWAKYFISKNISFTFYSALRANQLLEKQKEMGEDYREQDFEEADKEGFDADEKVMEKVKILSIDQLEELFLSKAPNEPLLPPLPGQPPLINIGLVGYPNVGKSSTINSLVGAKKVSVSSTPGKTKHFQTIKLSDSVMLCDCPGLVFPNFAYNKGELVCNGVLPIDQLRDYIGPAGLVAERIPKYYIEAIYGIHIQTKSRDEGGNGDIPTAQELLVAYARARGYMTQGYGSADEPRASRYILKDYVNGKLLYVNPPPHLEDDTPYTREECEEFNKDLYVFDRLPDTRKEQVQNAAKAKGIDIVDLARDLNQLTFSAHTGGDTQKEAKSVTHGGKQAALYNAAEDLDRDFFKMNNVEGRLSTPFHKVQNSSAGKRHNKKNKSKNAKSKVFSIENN

Nop2 (S. cerevisiae) = target: T2, Nop2 (S. cerevisiae) (UniProt P40991); assay: co-IP; Nop2 (Protein A-containing tag) retrieved with its pre-60S particles from yeast lysate on IgG sepharose, eluted with TEV protease, western blot; lysis buffer 50 mM Tris-HCl pH 7.8, 150 mM NaCl, 1.5 mM MgCl2, 0.1% NP-40, 5 mM beta-mercaptoethanol
T2 sequence: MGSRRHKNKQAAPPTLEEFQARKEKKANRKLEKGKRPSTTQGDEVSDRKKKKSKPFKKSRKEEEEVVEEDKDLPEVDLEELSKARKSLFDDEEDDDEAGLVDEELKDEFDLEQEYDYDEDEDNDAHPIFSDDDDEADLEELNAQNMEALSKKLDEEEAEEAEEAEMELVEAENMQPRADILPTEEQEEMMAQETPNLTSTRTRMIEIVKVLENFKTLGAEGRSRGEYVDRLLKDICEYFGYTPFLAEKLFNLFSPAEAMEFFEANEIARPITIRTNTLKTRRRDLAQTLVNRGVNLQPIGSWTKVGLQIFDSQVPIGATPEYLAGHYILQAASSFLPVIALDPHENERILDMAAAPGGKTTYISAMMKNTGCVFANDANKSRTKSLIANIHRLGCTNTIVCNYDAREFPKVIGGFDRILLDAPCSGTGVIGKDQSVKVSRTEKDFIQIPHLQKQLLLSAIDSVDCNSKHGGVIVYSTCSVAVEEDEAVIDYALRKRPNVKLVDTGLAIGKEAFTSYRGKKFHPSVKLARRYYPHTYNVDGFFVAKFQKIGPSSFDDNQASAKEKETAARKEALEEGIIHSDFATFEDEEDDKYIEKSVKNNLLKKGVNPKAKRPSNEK

B1: Arx1-GFP (protein, UniProt Q03862 1-593)
chain: MALAISHEDTQILLKDKNILQESVLNKYRTAGQIAQTALKYVTSLINDSYHSKTTQRQLTVPELCLLTDSFILTRLEQYYKNKVNERGIAIPTTIDIDQISGGWCPEIDDTQNLLNWNKGKDSTFASSVTGTLRPGDLVKITLGVHIDGYTSEVSHTMVIYPVDETKPILQPTGPLLGGKADAVAAAHIAMETVVALLACALTPEKLPASLGGTSSGITGQLIRTIVDTIARSYNCGVVPGSRVRRIRRFLAGQNEGIVAEREYKGVVWTESHQEADLLSNTDAKDLTVVDRGQSTPFTNVSAIPSDDFVVQSGEVYLIDLKMASLEHCTKKGLVTLETVDSYTGKSHKAGELIARPGAYVRDFAQTHILKLKTSRQLLTKIDKQGVYPFKLSHLSSNFPFVHENEEELQSLKKDLKSFRLGMSEISNNYLCVESPIQIARWVPWDHILKATNPNGNLSYDATSTLTLPGHELPLPKLGVSAIKLKSLMNSTKESISLPVARECNTIVLCDSSVSTTDRPELLRLTGGSKTCQPSWIHSQHELNPQDSIVQGIFQLATLAKDKRFGLLLKETQPMKQKSVETSNGGVEETMKM
binding [1]: binds

B3: Mak5 (enzyme, UniProt P38112 1-773)
chain: MGKKRAPQKGKTVTKPQEIIVDESKLNWKPVDIPDTLDDFGGFYGLEEIDGVDVKVVDGKVTFVTKKDSKVLKDSNKEKVGDDQESVENESGSDSESELLEFKNLDDIKEGELSAASYSSSDEDEQGNIESSKLTDPSEDVDEDVDEDVLKENVFNKDINIDDISPVNLPEWTNLAPLSMTILQSLQNLNFLRPTEIQKKSIPVIMQGVDVMGKASTGSGKTLAYGIPIVEKLISNFSQKNKKPISLIFTPTRELAHQVTDHLKKICEPVLAKSQYSILSLTGGLSIQKQQRLLKYDNSGQIVIATPGRFLELLEKDNTLIKRFSKVNTLILDEADRLLQDGHFDEFEKIIKHLLVERRKNRENSEGSSKIWQTLIFSATFSIDLFDKLSSSRQVKDRRFKNNEDELNAVIQHLMSKIHFNSKPVIIDTNPESKVSSQIKESLIECPPLERDLYCYYFLTMFPGTTLIFCNAIDSVKKLTVYLNNLGIPAFQIHSSMTQKNRLKSLERFKQQSAKQKTINHSNPDSVQLSTVLIASDVAARGLDIPGVQHVIHYHLPRSTDIYIHRSGRTARAGSEGVSAMICSPQESMGPLRKLRKTLATKNSVSTDLNSRSTNRKPIKWQNTVPLLPIETDILSQLRERSRLAGELADHEIASNSLRKDDNWLKKAADELGIDVDSDEDDISKSNSDTFLLKNKNKKMQKTINKDKVKAMRATLNELLSVPIRKDRRQKYLTGGLVNLADNLVKKRGHNSIIGHEKTNALETLKKKKKRNN
binding (Nop2 (S. cerevisiae)): binds

Other lines, results leading:

binding [2]: binds
B2: Rpl10-GFP (protein, UniProt P41805 1-221)
chain: MARRPARCYRYQKNKPYPKSRYNRAVPDSKIRIYDLGKKKATVDEFPLCVHLVSNELEQLSSEALEAARICANKYMTTVSGRDAFHLRVRVHPFHVLRINKMLSCAGADRLQQGMRGAWGKPHGLAARVDIGQIIFSVRTKDSNKDVVVEGLRRARYKFPGQQKIILSKKWGFTNLDRPEYLKKREAGEVKDDGAFVKFLSKKGSLENNIREFPEYFAAQA

binding (Nop2 (S. cerevisiae)): binds
B4: Spb4 (enzyme, UniProt P25808 1-606)
chain: MSKSLEWDNLGFSLLPWIRTGLDVMGFETMTPVQASTIPMLAGNKDVVVDSVTGSGKTAAFVIPVLEKVVKEEANTSKFKKAHFHSLIIAPTRELSRQIESVVLSFLEHYPSDLFPIKCQLLVGTNEATVRDDVSNFLRNRPQILIGTPGRVLDFLQMPAVKTSACSMVVMDEADRLLDMSFIKDTEKILRLLPKQRRTGLFSATMRSAGSDIFKTGLRNPVRITVNSKNQAPSSLKLNYCVVNPAEKLQLLVSILNNYKFKKCIVYFPTCVSVSYFYSFIQYLGKRNILVNEVEIFSLHGKLQTSARTKTLTAFTDSLSNSVLFTTDVAARGIDIPDVDLVIQLDPPTNTDMFMHRCGRTGRANRVGKAITFLNEGREEDFIPFMQVKNVELEELDLEVKGITTNFYEDFRNWILEDRDRFDKGVKAYVAFIKYYSNHSATSIFRLQSLDYVGIAKLYGLFRLPRMPEITKYLATEKQEGIFPGNWLVDPPVNMDEYKYKDKKREKERQETLKNISLINDKKKLKSELKKKNLAWSDKTLTKERKLERKEKMSLKRKAIEEELKAEELDENAEEERIKEDWKEIVLQNKRKKVSSKAIQGNFDDL
